Results are given in words; binding and its absence hold for the method and conditions named. Some binding calls cover weakened binding; strength is not graded here.
B1: G7-pL1TZ (peptide)
peptide: HKVWHWESPSGQWDTWAA
modifications: conjugated to the dendrimer through the lysine that was substituted for a valine
B2: pL1TZ (peptide)
peptide: HKVWHWESPSGQWDTWAA

Chains of the proteins cited; added tags and fusions are not shown. Lines headed by an entry give the natural chain unless they say otherwise; changes in a name come on top. Residues count along the entry.
UniProt Q9NZQ7: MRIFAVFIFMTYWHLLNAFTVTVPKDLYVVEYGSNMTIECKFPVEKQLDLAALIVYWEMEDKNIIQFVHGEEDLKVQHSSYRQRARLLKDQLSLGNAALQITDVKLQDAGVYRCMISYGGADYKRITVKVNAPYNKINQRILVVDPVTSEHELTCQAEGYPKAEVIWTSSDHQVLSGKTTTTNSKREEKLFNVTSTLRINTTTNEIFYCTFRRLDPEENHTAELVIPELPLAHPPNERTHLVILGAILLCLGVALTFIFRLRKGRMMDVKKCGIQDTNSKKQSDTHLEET
PD-L1 on 786-O cells (PD-L1 overexpressing human renal cell carcinoma cell line): residues 19-290 of Q9NZQ7
PD-L1 proteins (R&D systems): residues 19-239 of Q9NZQ7

Experiments:
[1] = molecular target: PD-L1 proteins (R&D systems) (UniProt Q9NZQ7); test: SPR
[2] = molecular target: PD-L1 on 786-O cells (PD-L1 overexpressing human renal cell carcinoma cell line) (human) (UniProt Q9NZQ7); test: fluorescence microscopy on 786-O and MCF-7 cells

Binder	binding [1]	binding [2]
B1	binds	binds
B2	binds	

From US20230270882A1
